Paper PMC5127583
No constants are given. Whether binding was seen depends on the method and setting. Binding seen in cells or lysates may run through a third protein. Some binding calls cover weakened binding; strength is not graded here.

Chains of the proteins cited; added tags and fusions are not shown.
UniProt Q3URU2: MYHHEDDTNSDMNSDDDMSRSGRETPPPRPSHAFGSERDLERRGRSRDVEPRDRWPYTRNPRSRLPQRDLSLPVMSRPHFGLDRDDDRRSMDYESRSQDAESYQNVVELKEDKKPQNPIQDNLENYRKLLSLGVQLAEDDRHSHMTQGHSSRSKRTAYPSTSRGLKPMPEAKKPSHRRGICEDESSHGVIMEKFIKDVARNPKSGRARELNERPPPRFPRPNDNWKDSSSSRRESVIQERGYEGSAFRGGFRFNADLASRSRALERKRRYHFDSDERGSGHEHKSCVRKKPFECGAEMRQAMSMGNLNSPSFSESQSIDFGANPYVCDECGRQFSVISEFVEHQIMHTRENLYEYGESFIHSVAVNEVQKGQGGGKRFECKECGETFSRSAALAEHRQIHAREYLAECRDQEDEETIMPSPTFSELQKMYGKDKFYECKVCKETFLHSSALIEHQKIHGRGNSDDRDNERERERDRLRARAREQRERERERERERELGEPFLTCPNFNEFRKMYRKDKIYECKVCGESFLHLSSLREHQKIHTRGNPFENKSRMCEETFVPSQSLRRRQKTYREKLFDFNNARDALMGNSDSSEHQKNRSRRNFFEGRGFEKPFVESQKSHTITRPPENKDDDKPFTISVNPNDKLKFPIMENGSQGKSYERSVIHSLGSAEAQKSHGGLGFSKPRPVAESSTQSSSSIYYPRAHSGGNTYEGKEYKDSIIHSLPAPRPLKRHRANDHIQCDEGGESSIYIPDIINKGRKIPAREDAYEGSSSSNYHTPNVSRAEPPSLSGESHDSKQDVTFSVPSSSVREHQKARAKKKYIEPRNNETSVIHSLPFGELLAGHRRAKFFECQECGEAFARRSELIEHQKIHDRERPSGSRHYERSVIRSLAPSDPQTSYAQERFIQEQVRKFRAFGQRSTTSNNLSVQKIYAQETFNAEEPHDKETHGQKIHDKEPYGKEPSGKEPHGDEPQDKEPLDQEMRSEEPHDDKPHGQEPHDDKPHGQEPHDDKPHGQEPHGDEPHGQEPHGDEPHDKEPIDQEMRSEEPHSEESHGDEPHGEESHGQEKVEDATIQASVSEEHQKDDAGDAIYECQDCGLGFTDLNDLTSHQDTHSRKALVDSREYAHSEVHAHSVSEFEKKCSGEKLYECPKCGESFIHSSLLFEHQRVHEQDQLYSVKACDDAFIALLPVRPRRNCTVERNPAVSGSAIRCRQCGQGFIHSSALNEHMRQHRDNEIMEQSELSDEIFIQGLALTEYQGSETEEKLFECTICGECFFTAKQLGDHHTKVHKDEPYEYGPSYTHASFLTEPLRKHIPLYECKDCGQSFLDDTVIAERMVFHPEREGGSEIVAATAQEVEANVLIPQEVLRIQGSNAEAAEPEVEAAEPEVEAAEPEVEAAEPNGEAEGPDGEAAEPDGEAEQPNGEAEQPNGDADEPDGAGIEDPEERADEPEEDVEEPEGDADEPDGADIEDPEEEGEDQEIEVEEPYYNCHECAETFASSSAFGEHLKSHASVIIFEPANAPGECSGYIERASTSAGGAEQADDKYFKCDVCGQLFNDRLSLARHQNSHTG
UniProt Q13263: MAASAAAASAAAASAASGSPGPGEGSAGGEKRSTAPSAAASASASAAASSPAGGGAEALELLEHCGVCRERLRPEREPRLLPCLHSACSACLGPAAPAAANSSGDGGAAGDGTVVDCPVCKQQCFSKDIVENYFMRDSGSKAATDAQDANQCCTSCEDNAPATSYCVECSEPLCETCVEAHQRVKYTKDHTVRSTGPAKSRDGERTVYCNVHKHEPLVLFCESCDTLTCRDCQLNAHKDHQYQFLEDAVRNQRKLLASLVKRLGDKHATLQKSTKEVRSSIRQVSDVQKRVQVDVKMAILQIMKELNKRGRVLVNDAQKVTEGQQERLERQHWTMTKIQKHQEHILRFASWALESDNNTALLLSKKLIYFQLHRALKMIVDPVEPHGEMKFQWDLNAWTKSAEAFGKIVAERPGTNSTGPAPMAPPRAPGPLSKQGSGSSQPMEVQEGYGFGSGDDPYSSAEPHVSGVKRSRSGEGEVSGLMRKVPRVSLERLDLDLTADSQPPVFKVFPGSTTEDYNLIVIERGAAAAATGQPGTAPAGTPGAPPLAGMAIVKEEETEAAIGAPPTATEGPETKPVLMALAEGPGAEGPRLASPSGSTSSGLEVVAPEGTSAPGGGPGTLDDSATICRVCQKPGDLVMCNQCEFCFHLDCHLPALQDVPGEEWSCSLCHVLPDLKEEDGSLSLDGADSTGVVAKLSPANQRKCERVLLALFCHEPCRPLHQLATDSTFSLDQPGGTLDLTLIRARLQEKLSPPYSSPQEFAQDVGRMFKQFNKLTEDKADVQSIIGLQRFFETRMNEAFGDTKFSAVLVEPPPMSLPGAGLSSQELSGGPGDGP

Molecular target: PEG3-FL, the full-length mouse PEG3 with the FLAG tag at the C-terminus (mouse) (UniProt Q3URU2)
Test: co-IP; Neuro2a cells co-transfected with HA-KAP1 and PEG3-FL-FLAG or PEG3-Del(Ex7)-FLAG; Pierce IP Lysis Buffer; immunoprecipitated with anti-FLAG or anti-HA antibody; western blot with anti-KAP1 or anti-HA antibody

- binding: binds
Substance: human KAP1, full-length, with 3 HA tags at the N-terminus (pKH3-TRIM28) (from UniProt Q13263 1-835)
